Results: PMC4818453
These are yes or no findings as the source states them, for the method shown. Binding seen in cells or lysates may run through a third protein. Some results given as binding are weak or reduced against the parent protein; the word gives no strength. Where a sequence is shown, tags or fusion partners need not be part of it.

Protein sequences, listed by entry. Tags and fused reporters are not part of them. Residues count along the entry.
UniProt P10719, residues 47-529: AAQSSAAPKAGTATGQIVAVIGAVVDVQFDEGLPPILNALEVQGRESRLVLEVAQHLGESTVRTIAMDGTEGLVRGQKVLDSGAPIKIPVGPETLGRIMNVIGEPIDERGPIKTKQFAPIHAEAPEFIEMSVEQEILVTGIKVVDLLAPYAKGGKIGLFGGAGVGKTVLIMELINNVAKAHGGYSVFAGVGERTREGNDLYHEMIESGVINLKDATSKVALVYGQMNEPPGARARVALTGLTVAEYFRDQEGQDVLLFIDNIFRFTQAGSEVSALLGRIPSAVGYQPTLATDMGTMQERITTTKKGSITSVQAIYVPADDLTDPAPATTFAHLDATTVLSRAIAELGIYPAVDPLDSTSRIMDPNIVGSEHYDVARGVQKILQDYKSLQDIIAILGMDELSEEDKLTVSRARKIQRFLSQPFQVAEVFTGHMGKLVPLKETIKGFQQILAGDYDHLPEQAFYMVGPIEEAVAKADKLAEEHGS

Molecular target: T1, full-length GST-CASK (rat) (UniProt Q62915)
T1 sequence: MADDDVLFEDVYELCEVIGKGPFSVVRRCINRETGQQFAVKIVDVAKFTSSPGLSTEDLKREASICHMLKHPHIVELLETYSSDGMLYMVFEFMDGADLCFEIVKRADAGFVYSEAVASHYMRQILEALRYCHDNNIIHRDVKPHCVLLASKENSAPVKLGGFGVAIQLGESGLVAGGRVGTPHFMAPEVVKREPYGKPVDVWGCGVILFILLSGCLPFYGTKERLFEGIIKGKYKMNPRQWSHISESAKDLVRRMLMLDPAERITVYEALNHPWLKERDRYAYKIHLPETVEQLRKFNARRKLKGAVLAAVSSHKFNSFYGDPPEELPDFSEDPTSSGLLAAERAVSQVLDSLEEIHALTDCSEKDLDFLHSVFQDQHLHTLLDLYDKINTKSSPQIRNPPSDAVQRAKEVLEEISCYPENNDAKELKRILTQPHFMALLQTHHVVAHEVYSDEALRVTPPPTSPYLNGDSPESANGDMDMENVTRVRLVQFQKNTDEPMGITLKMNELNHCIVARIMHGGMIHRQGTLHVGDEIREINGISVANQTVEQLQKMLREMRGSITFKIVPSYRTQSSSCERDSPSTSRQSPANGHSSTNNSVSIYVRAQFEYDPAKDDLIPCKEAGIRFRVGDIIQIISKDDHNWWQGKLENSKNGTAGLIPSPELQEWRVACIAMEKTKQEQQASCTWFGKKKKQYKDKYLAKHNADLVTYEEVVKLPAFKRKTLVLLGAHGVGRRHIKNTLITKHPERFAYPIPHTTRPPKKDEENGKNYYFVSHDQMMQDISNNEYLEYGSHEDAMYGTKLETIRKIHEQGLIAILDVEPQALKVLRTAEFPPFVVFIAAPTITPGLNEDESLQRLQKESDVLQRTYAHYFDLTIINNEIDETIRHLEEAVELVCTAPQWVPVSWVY
Experiment: pull-down; full-length GST-CASK or GST immobilised on glutathione resin; rat brain homogenate; bound proteins detected by immunoblot; only the target purified

- binding: binds
Substance: mitochondrial ATP synthase β subunit (from UniProt P10719 47-529)
